Assay results from US20190175609A1, “THERAPEUTIC USES OF A C-RAF INHIBITOR” (Novartis AG, priority 2016, published 2019).
Numbering of substitutions follows the chain as printed. No constants are given. Whether binding was seen depends on the method and setting. Some binding calls cover weakened binding; strength is not graded here.

Chains of the proteins cited; added tags and fusions are not shown. Lines headed by an entry give the natural chain unless they say otherwise; changes in a name come on top. Residues count along the entry.
UniProt Q15116: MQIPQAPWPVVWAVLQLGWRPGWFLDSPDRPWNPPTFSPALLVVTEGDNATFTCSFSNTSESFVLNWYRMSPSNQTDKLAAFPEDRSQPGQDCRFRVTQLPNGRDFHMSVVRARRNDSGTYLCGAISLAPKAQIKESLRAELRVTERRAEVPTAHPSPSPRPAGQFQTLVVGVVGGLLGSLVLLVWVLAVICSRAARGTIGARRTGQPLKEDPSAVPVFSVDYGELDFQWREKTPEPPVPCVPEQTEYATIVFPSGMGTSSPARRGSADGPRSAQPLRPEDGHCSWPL
PD-1 on PD-1-expressing 300.19 cells: residues 25-288 of Q15116
Programmed Death 1 (PD-1): residues 25-167 of Q15116

How the values were obtained:
[1] = target: PD-1 on PD-1-expressing 300.19 cells (UniProt Q15116); assay: FACS competition binding, Experiment 1: test mAb serially diluted against a constant concentration of Alexa 488-labeled murine mAb BAP049 (competitor) on PD-1-expressing 300.19 cells; x axis is the ratio conc. test mAb / conc. labelled murine mAb
[2] = target: Programmed Death 1 (PD-1) (UniProt Q15116); assay: FACS ligand blocking: mAb titrated, signal of ligand-Ig bound to PD-1; legend paragraph 46 names PD-L1-Ig and PD-L2-Ig as blocked ligands for FIG. 8A; cells not named
[3] = target: Programmed Death 1 (PD-1) (UniProt Q15116); assay: FACS ligand blocking: mAb titrated, signal of PD-L2-Ig (blocked ligand) bound to PD-1; cells not named
[4] = target: PD-1 on PD-1-expressing 300.19 cells (UniProt Q15116); assay: FACS competition binding, Experiment 2: test mAb serially diluted against a constant concentration of Alexa 488-labeled murine mAb BAP049 (competitor) on PD-1-expressing 300.19 cells; x axis is the ratio conc. test mAb / conc. labelled murine mAb
[5] = target: Programmed Death 1 (PD-1) (UniProt Q15116); assay: FACS binding analysis at 200, 100, 50, 25 and 12.5 ng/ml; cells and target not named in legend paragraph 42 (anti-PD-1 mAbs)

Measured: binding

B1: BAP049-hum01 (antibody, human IgG4 S228P, kappa, V domains shown)
VH: EVQLVQSGAEVKKPGESLRISCKGSGYTFTTYWMHWVRQATGQGLEWMGNIYPGTGGSNFDEKFKNRVTITADKSTSTAYMELSSLRSEDTAVYYCTRWTTGTGAYWGQGTTVTVSS
VL: EIVLTQSPATLSLSPGERATLSCKSSQSLLDSGNQKNFLTWYQQKPGQAPRLLIYWASTRESGVPSRFSGSGSGTEFTLTISSLQPDDFATYYCQNDYSYPYTFGQGTKVEIKR
binds: all assays above

B2: BAP049-hum05 (antibody, human IgG4 S228P, kappa, V domains shown)
VH: B1 VH
VL: B1 VL with Q48K, R51K, E76D, L79F, D87E, F89I
binds: all assays above
